Measured values published in patent US20250282770A1, “BIOLUMINESCENT PROBES TO TRACK STEM CELLS IN VIVO” (THE BOARD OF TRUSTEES OF THE UNIVERSITY OF ILLINOIS, priority 2024, published 2025).

Experiment: Analyte selectivity assay for AlDeLuc aldehyde product
Conditions: 50 μM

## CCN(CC)c1ccc2nc(C3=NC(C=O)CS3)sc2c1 (centres unmarked) [aldehyde form of AlDeLuc, 2-(6-(diethylamino)benzo[d]thiazol-2-yl)-4,5-dihydrothiazole-4-carbaldehyde]
Cys and GSH 1 mM, others 100 μM
  effect of glutathione, lysine, cysteine, 5-methoxytryptamine on ALDH1A1-catalyzed bioluminescence: did not attenuate the bioluminescence
Analytes 100 μM, one hour room temperature
  oxidation of aldehyde by peroxides, radicals or hypochlorite: No interference
